Consider eight molecules from PMC2861645.

Sequences of proteins named here, by UniProt entry; tags and fusion partners are left off. Residues count along the entry.
UniProt Q9UGN5: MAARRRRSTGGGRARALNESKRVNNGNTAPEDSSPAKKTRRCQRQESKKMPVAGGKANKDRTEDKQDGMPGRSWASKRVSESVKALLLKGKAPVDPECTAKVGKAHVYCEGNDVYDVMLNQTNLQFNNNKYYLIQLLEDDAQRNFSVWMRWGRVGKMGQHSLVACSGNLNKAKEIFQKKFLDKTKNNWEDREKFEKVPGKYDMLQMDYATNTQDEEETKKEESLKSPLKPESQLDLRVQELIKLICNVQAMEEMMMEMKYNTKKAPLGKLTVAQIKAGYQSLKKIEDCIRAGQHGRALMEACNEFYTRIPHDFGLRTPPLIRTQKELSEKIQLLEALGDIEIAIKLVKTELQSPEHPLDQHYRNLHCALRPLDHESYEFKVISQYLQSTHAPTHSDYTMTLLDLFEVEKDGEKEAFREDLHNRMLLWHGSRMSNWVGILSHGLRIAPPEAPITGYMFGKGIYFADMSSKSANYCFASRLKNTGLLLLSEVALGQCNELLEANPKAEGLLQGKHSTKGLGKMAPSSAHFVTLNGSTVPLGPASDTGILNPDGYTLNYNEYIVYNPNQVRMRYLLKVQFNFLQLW
UniProt P09874: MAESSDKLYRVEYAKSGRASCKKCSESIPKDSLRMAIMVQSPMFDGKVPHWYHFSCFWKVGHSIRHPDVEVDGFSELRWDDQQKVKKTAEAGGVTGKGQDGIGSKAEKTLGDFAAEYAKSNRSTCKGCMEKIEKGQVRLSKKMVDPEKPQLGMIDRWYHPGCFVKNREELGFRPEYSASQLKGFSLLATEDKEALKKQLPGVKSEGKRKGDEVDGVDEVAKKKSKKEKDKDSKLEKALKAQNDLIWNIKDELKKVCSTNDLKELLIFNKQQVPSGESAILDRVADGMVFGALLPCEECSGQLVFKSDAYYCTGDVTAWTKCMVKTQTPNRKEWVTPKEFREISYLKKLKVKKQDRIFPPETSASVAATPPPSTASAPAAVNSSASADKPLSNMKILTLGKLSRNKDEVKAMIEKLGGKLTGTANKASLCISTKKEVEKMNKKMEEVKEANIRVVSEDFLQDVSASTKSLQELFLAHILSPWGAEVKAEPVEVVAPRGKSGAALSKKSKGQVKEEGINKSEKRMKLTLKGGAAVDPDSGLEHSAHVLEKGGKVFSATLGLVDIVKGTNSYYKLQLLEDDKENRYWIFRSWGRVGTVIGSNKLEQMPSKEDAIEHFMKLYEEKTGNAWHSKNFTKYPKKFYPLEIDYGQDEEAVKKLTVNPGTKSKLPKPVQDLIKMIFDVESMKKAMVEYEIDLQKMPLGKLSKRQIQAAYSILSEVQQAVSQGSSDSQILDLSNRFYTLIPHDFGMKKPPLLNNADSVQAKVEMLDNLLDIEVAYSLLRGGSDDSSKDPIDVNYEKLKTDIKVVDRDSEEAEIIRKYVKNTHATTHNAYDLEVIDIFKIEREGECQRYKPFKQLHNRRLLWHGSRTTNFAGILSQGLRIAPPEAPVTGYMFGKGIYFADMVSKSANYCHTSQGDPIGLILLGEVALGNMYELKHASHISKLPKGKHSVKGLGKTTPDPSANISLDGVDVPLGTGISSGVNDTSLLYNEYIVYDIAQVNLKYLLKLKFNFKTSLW
UniProt P12956: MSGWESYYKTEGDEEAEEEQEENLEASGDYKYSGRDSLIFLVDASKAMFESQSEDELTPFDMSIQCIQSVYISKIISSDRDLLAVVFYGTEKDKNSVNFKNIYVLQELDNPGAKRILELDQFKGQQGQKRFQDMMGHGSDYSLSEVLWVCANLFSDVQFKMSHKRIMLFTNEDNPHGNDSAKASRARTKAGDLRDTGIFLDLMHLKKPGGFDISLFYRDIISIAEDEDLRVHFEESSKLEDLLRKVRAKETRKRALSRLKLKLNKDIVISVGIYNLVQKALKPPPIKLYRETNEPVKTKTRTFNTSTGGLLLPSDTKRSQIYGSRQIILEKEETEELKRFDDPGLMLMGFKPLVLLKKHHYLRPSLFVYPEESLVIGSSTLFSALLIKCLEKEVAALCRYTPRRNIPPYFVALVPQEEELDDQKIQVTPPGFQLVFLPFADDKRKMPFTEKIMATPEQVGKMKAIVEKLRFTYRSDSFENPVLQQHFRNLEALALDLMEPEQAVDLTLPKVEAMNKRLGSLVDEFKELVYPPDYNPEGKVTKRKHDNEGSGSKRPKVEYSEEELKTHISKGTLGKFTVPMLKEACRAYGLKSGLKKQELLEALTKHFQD
UniProt P13010: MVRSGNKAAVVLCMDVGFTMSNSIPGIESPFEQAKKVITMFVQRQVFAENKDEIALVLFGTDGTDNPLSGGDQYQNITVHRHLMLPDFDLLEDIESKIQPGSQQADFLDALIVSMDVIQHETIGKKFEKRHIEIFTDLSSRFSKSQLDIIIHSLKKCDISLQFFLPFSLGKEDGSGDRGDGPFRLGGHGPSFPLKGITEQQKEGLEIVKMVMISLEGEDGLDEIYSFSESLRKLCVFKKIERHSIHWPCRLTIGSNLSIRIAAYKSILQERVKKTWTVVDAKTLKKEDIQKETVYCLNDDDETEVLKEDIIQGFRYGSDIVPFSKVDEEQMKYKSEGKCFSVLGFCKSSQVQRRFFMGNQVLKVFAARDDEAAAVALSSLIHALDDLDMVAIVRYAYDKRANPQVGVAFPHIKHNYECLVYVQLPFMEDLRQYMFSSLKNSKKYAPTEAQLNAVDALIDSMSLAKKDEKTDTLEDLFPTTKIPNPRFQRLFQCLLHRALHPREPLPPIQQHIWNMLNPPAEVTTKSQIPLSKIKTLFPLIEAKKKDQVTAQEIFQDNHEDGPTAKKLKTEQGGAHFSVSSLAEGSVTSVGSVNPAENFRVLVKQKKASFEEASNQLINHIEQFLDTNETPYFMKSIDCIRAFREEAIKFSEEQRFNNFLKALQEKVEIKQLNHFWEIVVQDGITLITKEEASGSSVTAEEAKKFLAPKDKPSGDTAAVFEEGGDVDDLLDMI
UniProt O95831, residues 102-613: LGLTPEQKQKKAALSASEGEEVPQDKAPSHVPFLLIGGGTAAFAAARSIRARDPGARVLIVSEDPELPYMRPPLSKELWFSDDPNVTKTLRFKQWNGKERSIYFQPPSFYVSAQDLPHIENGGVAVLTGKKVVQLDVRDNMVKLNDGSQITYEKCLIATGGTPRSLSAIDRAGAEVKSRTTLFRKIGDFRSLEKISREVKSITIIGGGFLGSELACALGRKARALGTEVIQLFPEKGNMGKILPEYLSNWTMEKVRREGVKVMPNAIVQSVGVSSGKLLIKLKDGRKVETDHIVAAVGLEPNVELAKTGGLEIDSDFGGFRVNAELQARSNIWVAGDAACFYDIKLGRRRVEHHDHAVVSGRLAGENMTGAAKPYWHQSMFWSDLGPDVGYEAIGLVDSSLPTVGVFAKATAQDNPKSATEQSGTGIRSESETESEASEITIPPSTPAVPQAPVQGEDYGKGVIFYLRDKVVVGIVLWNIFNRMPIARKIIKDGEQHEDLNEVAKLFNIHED
UniProt Q9NYF8: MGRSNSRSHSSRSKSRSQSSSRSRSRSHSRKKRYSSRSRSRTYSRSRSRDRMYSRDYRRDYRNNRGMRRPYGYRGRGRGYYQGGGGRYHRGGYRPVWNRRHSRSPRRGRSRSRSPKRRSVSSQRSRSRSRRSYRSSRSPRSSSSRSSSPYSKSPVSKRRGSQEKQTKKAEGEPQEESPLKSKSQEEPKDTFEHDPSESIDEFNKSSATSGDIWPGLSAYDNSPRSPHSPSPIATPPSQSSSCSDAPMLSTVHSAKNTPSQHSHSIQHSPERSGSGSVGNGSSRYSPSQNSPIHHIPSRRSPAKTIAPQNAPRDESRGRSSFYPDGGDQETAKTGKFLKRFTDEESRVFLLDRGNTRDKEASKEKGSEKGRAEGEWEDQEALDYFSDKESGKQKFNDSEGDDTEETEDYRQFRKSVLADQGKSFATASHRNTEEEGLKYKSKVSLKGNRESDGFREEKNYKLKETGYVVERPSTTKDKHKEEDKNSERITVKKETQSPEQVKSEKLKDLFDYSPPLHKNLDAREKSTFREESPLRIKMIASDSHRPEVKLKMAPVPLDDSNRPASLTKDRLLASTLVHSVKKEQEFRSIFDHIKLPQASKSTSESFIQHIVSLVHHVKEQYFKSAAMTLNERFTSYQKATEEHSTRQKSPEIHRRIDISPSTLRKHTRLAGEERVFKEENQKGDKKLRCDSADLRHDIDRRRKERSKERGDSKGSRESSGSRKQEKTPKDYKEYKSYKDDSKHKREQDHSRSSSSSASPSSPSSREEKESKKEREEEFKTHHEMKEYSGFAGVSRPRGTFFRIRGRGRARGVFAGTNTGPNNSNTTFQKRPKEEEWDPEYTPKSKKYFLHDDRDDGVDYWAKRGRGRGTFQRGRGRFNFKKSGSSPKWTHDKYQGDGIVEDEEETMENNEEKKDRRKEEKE
UniProt P19838, residues 1-433: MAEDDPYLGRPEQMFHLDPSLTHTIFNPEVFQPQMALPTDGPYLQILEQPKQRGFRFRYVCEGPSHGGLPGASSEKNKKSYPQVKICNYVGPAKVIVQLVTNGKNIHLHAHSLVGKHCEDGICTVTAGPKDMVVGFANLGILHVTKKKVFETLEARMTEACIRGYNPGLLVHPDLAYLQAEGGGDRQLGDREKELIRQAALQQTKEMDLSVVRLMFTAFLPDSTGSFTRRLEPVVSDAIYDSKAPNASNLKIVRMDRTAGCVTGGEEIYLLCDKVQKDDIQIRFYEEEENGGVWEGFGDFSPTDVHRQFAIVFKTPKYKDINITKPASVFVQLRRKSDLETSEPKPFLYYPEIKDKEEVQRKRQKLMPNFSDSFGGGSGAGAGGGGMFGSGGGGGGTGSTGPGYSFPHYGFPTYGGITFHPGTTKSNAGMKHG
UniProt P42224: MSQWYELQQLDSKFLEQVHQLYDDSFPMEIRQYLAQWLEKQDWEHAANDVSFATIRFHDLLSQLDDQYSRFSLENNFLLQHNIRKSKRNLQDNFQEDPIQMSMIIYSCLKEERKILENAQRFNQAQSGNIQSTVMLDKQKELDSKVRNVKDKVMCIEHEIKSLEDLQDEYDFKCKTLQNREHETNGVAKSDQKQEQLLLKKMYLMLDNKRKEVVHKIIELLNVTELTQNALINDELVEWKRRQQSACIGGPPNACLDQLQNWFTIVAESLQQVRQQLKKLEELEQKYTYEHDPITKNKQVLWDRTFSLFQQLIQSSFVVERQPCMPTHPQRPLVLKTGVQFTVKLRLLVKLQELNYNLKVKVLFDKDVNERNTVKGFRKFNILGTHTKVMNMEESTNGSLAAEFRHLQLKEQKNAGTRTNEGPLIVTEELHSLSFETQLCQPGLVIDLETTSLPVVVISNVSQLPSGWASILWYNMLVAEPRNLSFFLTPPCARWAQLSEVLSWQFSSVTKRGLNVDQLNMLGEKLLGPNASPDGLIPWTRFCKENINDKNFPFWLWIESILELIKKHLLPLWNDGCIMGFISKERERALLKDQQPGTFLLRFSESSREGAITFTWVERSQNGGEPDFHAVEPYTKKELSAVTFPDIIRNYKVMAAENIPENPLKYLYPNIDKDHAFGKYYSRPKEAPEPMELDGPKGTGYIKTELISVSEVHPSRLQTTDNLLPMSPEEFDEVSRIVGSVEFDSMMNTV

Test [1] concerns the target FLAG-PARP-2 (UniProt Q9UGN5). The test is described as follows: co-IP; FLAG-PARP-2 immunoprecipitated from whole cellular extract with anti-FLAG M2 on protein G magnetic beads; control normal mouse IgG; partners detected by western blot. In general terms: Immunoblotting shows a protein as a band on a membrane.
Test [2] has as its target Poly(ADP-ribose) polymerase 1 (PARP-1) (human (endogenous in SK-N-SH or HeLa)) (UniProt P09874). Nature of the test: co-IP; PARP-1 immunoprecipitated from whole cellular extract with F1-23 on protein G magnetic beads; control normal mouse IgG; partners detected by western blot.
Test [3] has the same target. Nature of the test: co-IP; data not shown: PARP-1 immunoprecipitates probed by western blot; control immunoprecipitate beside it.
Test [4] concerns the target FLAG-PARP-2 (UniProt Q9UGN5). The test is described as follows: co-IP; data not shown: FLAG-PARP-2 immunoprecipitate probed by western blot for PARP-1; control immunoprecipitate beside it.

No constants are given. Whether binding was seen depends on the method and setting. Binding seen in cells or lysates may run through a third protein. Some binding calls cover weakened binding; strength is not graded here.

In the case of “ATP-dependent DNA helicase II 70 kDa subunit (from UniProt P12956 1-609)”, the binding entry with FLAG-PARP-2 [1] was “binds”. Regarding “ATP-dependent DNA helicase II 80 kDa subunit (from UniProt P13010 1-732)”, the binding entry in the test with FLAG-PARP-2 [1] was “binds”. In the case of “Apoptosis-inducing factor (from UniProt O95831 102-613)”, the binding entry in test [2] was “binds weakly”; with FLAG-PARP-2 [1], “binds”. For “Bcl-2-associated transcription factor 1 (from UniProt Q9NYF8 1-920)”, the binding result (in test [2]; in the test with FLAG-PARP-2 [1]) was “binds” each time. Take “Nuclear factor kappa B subunit p50 (from UniProt P19838 1-433)”: the binding result in test [3] is recorded as “binds”. For “Poly(ADP-ribose) polymerase 1 (PARP-1) (from UniProt P09874 1-1014) (enzyme)”, the binding result in the test with FLAG-PARP-2 [4] was “binds”.

For the molecule “Signal transducer and activator of transcription 1-alpha/beta (from UniProt P42224 1-750)”, in the test with FLAG-PARP-2 [1], the binding entry is given as “binds”.

B1: Replication factor C subunit 1 (protein, UniProt P35251 1-1148)
chain: MDIRKFFGVIPSGKKLVSETVKKNEKTKSDEETLKAKKGIKEIKVNSSRKEDDFKQKQPSKKKRIIYDSDSESEETLQVKNAKKPPEKLPVSSKPGKISRQDPVTYISETDEEDDFMCKKAASKSKENGRSTNSHLGTSNMKKNEENTKTKNKPLSPIKLTPTSVLDYFGTGSVQRSNKKMVASKRKELSQNTDESGLNDEAIAKQLQLDEDAELERQLHEDEEFARTLAMLDEEPKTKKARKDTEAGETFSSVQANLSKAEKHKYPHKVKTAQVSDERKSYSPRKQSKYESSKESQQHSKSSADKIGEVSSPKASSKLAIMKRKEESSYKEIEPVASKRKENAIKLKGETKTPKKTKSSPAKKESVSPEDSEKKRTNYQAYRSYLNREGPKALGSKEIPKGAENCLEGLIFVITGVLESIERDEAKSLIERYGGKVTGNVSKKTNYLVMGRDSGQSKSDKAAALGTKIIDEDGLLNLIRTMPGKKSKYEIAVETEMKKESKLERTPQKNVQGKRKISPSKKESESKKSRPTSKRDSLAKTIKKETDVFWKSLDFKEQVAEETSGDSKARNLADDSSENKVENLLWVDKYKPTSLKTIIGQQGDQSCANKLLRWLRNWQKSSSEDKKHAAKFGKFSGKDDGSSFKAALLSGPPGVGKTTTASLVCQELGYSYVELNASDTRSKSSLKAIVAESLNNTSIKGFYSNGAASSVSTKHALIMDEVDGMAGNEDRGGIQELIGLIKHTKIPIICMCNDRNHPKIRSLVHYCFDLRFQRPRVEQIKGAMMSIAFKEGLKIPPPAMNEIILGANQDIRQVLHNLSMWCARSKALTYDQAKADSHRAKKDIKMGPFDVARKVFAAGEETAHMSLVDKSDLFFHDYSIAPLFVQENYIHVKPVAAGGDMKKHLMLLSRAADSICDGDLVDSQIRSKQNWSLLPAQAIYASVLPGELMRGYMTQFPTFPSWLGKHSSTGKHDRIVQDLALHMSLRTYSSKRTVNMDYLSLLRDALVQPLTSQGVDGVQDVVALMDTYYLMKEDFENIMEISSWGGKPSPFSKLDPKVKAAFTRAYNKEAHLTPYSLQAIKASRHSTSPSLDSEYNEELNEDDSQSDEKDQDAIETDAMIKKKTKSSKPSKPEKDKEPRKGKGKSSKK
With B1, the binding entry in test [3] was “binds”.
